Reference: PubChem BioAssay AID504774 (Drosophila RNAi Screening Center, 2011)

Screen: 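Fly genes whose loss alters survival after alkylation damage to DNA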 (primary screen)
Cell system: Drosophila Kc167 cells
Reagents: long dsRNA against Drosophila genes, about 0.25 µg dsRNA per well
Duration: about 6 days: 3 days knock-down, then 3 days with or without MMS
Conditions: methyl methanesulphonate 0.004% (w/v) for 3 days after knock-down
Measurement: 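Viability in wells given MMS, read as ATP luminescence, normalised by quantiles plate by plate and averaged across replicates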
Scale: mean viability with MMS: higher = more surviving cells after MMS
The screen tested about 23,000 reagents; shown is an unselected part of those with a known target gene and a result. 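Values are quantile-normalised luminescence on an arbitrary scale; higher means more cells surviving MMS.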 A plus sign joins genes that one reagent is predicted to hit. Further read-outs or replicates are left out here.

CG30271 [DRSC04170] → mean viability with MMS = 3.79e6
CG12017 [DRSC08225] → mean viability with MMS = 3.45e6
CG30447 [DRSC05820] → mean viability with MMS = 3.55e6
Rpn9 [DRSC16840] → mean viability with MMS = 3.89e6
Mitofilin [DRSC16742] → mean viability with MMS = 3.46e6
CG7231 [DRSC03034] → mean viability with MMS = 3.69e6
CG42304 + Snup [DRSC08276] → mean viability with MMS = 3.31e6
CG42304 + Snup [DRSC08277] → mean viability with MMS = 3.33e6
CG42304 + Snup [DRSC22781] → mean viability with MMS = 3.14e6
Ir48c [DRSC06154] → mean viability with MMS = 3.61e6
ORY [DRSC22883] → mean viability with MMS = 3.37e6
CG30109 + CG30108 [DRSC05674] → mean viability with MMS = 3.52e6
Sec61beta [DRSC07548] → mean viability with MMS = 3.68e6
Sec61beta [DRSC21512] → mean viability with MMS = 3.28e6
CheB38a [DRSC03205] → mean viability with MMS = 3.66e6
CG31446 [DRSC13111] → mean viability with MMS = 3.34e6
poe [DRSC03593] → mean viability with MMS = 3.52e6
Cyp313a5 [DRSC16628] → mean viability with MMS = 3.74e6
Lcch3 [DRSC20257] → mean viability with MMS = 3.54e6
Lcch3 [DRSC22175] → mean viability with MMS = 3.64e6
Doc2 [DRSC22716] → mean viability with MMS = 3.35e6
CG13287 [DRSC09961] → mean viability with MMS = 1.57e6
hpRNA:CR18854 + IP3K1 [DRSC02218] → mean viability with MMS = 3.77e6
Or83c [DRSC12359] → mean viability with MMS = 3.73e6
CG14621 [DRSC20635] → mean viability with MMS = 3.61e6
vsg [DRSC10219] → mean viability with MMS = 3.49e6
Prosalpha5 [DRSC07514] → mean viability with MMS = 3.14e6
ZnT41F [DRSC04850] → mean viability with MMS = 3.44e6
CG7627 [DRSC03065] → mean viability with MMS = 3.73e6
Dus4 [DRSC02066] → mean viability with MMS = 3.56e6
Ku80 [DRSC02699] → mean viability with MMS = 3.51e6
CG9812 [DRSC04566] → mean viability with MMS = 3.59e6
Pkc53E [DRSC05636] → mean viability with MMS = 3.64e6
Pkc53E [DRSC07510] → mean viability with MMS = 3.59e6
Ipo9 [DRSC16813] → mean viability with MMS = 3.58e6
CG12725 [DRSC19501] → mean viability with MMS = 3.61e6
CG8300 [DRSC18426] → mean viability with MMS = 3.41e6
CG8300 [DRSC23231] → mean viability with MMS = 3.44e6
CG11865 [DRSC01872] → mean viability with MMS = 3.56e6
Nep3 [DRSC20685] → mean viability with MMS = 3.47e6
Dap160 [DRSC03313] → mean viability with MMS = 3.68e6
RhoGEF3 [DRSC08351] → mean viability with MMS = 3.55e6
RhoGEF3 [DRSC08352] → mean viability with MMS = 3.73e6
Ada2a [DRSC16206] → mean viability with MMS = 3.61e6
Ada2a [DRSC21598] → mean viability with MMS = 2.74e6

2 entries from above, set out differently:
{"target":"RhoGEF3","amplicon":"DRSC08352","mean viability with MMS":3.73e6}
{"target":"Ada2a","amplicon":"DRSC16206","mean viability with MMS":3.61e6}
